Source: PMC10957897, “An evolutionary mechanism to assimilate new nutrient sensors into the mTORC1 pathway” (Nature Communications, 2024)

T1: FLAG-tagged Mio (D. melanogaster) (UniProt Q9VQ89)
T1 sequence: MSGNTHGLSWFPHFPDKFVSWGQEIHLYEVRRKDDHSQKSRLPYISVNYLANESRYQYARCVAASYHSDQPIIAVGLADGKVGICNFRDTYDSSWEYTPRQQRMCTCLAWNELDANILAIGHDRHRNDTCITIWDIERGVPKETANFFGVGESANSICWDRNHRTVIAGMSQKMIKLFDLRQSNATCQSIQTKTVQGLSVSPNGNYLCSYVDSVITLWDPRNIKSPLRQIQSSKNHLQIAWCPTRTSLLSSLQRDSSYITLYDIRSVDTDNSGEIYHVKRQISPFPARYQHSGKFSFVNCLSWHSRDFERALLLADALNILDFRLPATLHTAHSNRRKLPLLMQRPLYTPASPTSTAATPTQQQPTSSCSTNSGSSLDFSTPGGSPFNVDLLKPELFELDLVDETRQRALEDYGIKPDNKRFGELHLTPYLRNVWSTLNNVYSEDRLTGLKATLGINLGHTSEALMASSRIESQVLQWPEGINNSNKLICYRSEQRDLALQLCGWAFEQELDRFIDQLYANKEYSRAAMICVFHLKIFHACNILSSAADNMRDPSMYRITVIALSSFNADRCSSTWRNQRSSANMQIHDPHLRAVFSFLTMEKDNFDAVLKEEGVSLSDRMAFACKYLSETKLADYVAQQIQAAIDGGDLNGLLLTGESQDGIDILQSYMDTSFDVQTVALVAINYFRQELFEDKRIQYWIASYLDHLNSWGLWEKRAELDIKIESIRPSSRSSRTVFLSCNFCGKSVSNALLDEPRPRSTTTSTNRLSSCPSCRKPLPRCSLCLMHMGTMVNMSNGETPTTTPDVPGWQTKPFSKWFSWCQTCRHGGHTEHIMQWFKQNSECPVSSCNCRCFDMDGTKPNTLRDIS


Molecular target: T1, FLAG-tagged Mio (D. melanogaster)
Assay: affinity purification with mass spectrometry; anti-FLAG magnetic beads on lysates of S2R+ cells expressing FLAG-Mio (75 uM CuSO4, 4 days); 1% Triton lysis buffer, washes with 300 mM NaCl, elution with FLAG peptide; repeated without all amino acids, without leucine and with all amino acids

Row | binding | Binder
1 | binds | dSestrin, endogenous in S2R+ cells (protein, UniProt Q9W1K5 1-497) MYYAVDYYADMGQISQDCFAATQTGASDFDMDELDDLDQVTQVIGYHPQFHDHFLATQNFIMKGDGPLPNDYRYYLAIIAAARHQCPYLVKRYEKEFINQGGDSAWLGGLDFIPAKLRAIYDINKILAHRPWLLRKEHIERLTKGKNSWSLSEVVHAMVLLSHFHSLSSFVFSCGLTQKLDGLSSPKLKSPPAAVAALAPTILITPTSPTEPQKGKPVLAEISLNNANPDYDSQTAASSNGGAPPDSANAVADGPDATTLNGYLATAQQLPQQHGISVETLMERMKVLSQKQDECSEAELSSRFQKVEQQTAELAAVTPEAAVGVPTNLSHYVDDANFIYQDFARRGTESINTFRIQDYSWEDHGYSLVDGLYNDVGIFLDAKFRAAYNLTYCTMGGIKNVDTSKFRRAIWNYIQCIYGIRHDDYDYGEVNQLLVRPLKMFIKTACCFPERITTKDYDSVLVELQDSEKVHVNLMIMEARNQAELLYALREIMRYMT
2 | binds | Unmet expectations (CG11596), endogenous in S2R+ cells (protein, UniProt Q9I7X6 1-456) MSSMDCATFPMHPKMDEQLARTFVINEEEEEKHIQKVQNAFLYYGPYACQRLKRSMDYLNSLSGEDQIMLAKYRGHLECVRTCIDRNQAVIREILRGRVLYPTDEATGDPSEFDEPPPNVRHGDMDQIDIPFDEADVEPLKILKAQSTLKLIARDWSTEGALEREQSYKPIIDSIVAYFKHSDFELKDIKILVPGAGLGRLTYELACLGYSCEGNEFSYFMLIASNFVLNLCDNENKYVLYPWVHQYVNNLRREDQVAPVRFPDVCPLKNPPKGHFEIAAGDFLEVYKTPNAYNCVATCFFIDCANNVIDFIRTIYKILVPGGIWVNLGPLLYHFSDVSGQNSIEPAFEDLCIIMESVGFVIEKSRTGIRTKYAQNPSSMKQSEYQSLFWVCRKPDLFEEQRGKRKASREPHDLIVREDSEEEGEQQPERNETEEKQQLKPLATANCETEIKEQPS

No constants are given. Whether binding was seen depends on the method and setting. Binding seen in cells or lysates may run through a third protein. Here binding means that the protein was enriched with, or labelled near, the bait; the list need not be complete. Tags and fused reporters may be left off the sequences shown.
